Some of the results follow. The main result of the screen is listed elsewhere. These columns were measured beside it and carry no call. Most of these compounds were active or inconclusive in the main read-out, so they are no random draw. Potencies come from curve fits of mixed quality, noted in brackets.
Assay: qHTS Assay to Find Inhibitors of Chronic Active B-Cell Receptor Signaling
Conditions: ABC-DLBCL IkBa-CBG/CBR reporter, luminescence ratio (green luciferase fused to IkBa over red control in TMD8 lymphoma cells), 4 h
In short: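 Cell line TMD8 (human ABC DLBCL), stably expressing tet-inducible CBG68-IkBa fusion and CBR; IMDM/0.5% FBS; cpd up to 46 uM; dox induction, 4 h, 37C/5% CO2; dual luminescence; green/red ratio; MG132 control.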

[1] = measured here: CBR red luminescence, cell number
[2] = measured here: IkBa-CBG green luminescence

| Structure (SMILES) | AC50 [1] | AC50 [2] |
| --- | --- | --- |
| COc1cccc(C2C3=C(N=c4s/c(=C\c5ccccc5O)c(=O)n42)c2ccccc2CC3)c1OC (centres undefined) | 14.1 µM [falling, partial curve, poor fit] |  |
| Cn1nc(C(=O)NNC(=O)c2cccc(Cl)c2)ccc1=O | 29.1 µM [falling, single point] |  |
| C/C(=N\Nc1nc(C)cc(-c2ccccc2)n1)c1ccccc1 | 2.24 µM [falling, full curve, poor fit] |  |
| CCc1nnc(NC(=O)c2ccc(-c3ccc([N+](=O)[O-])cc3Cl)o2)s1 | 2.24 µM [rising, full curve] |  |
| Cc1ccc(N(C(=O)c2csnn2)C(C(=O)NC2CCCCC2)c2ccccn2)cc1 (centres undefined) | 31.6 µM [falling, single point] |  |
| CN(C)c1cccc(C(=O)NCc2ccc(Cl)cc2)c1 | 15.8 µM [rising, single point] |  |
| CCn1c(C)c(CS(=O)(=O)c2ccccc2)[nH]c1=O | 35.5 µM [falling, single point] |  |
| COc1ccccc1-n1c(CNC(=O)c2cccs2)n[nH]c1=S | 1.12 µM [falling, partial curve, poor fit] |  |
| COCCNCc1nc2sc(C)c(-c3ccccc3)c2c(=O)[nH]1 | 1.12 µM [rising, full curve, poor fit] |  |
| COc1ccc(-c2cc(-c3c(O)c(OC)c4occc4c3OC)[nH]n2)cc1OC | 1 µM [rising, partial curve, poor fit] |  |
| O=C1NC(Cc2c[nH]c3ccccc23)C(=O)N1CCOc1ccccc1 (centres undefined) | 4.11 µM [rising, single point] |  |
| COc1cc(OC)cc(-c2cc(N)n(S(=O)(=O)c3cccc4nsnc34)n2)c1 | 8.91 µM [falling, partial curve, poor fit] |  |
| COc1ccc(S(=O)(=O)Nc2cc3c(C(C)=O)c(C)oc3c3ccccc23)cc1 | 2.06 µM [rising, full curve, poor fit] | 2.06 µM [falling, partial curve, poor fit] |
| O=C(NCc1ccco1)C1CC(=O)N(c2ccc(Cl)cc2)C1 (centres undefined) | 6.31 µM [rising, single point] |  |
| CC(C)=CCc1c(O)c(CC=C(C)C)c2occ(-c3ccc(O)cc3)c(=O)c2c1O | 5.62 µM [rising, single point] |  |
| COc1ccc(NC(=O)C2C3CCC(C3)C2C(=O)O)cc1OC (centres undefined) | 11.6 µM [rising, partial curve, poor fit] |  |
| O=C(Cc1ccc(Br)cc1)NCc1ccccc1 | 17.8 µM [rising, partial curve, poor fit] | 17.8 µM [falling, single point] |

Record cards, as listed above.
COc1ccc(NC(=O)C2C3CCC(C3)C2C(=O)O)cc1OC (centres undefined) is listed with AC50 [1]: 11.6 µM [rising, partial curve, poor fit]
COCCNCc1nc2sc(C)c(-c3ccccc3)c2c(=O)[nH]1 is listed with AC50 [1]: 1.12 µM [rising, full curve, poor fit]
